# According to PubChem BioAssay AID1671190 (National Center for Advancing Translational Sciences (NCATS), 2021):
# By UniProt entry, the sequences of proteins in these tests, tags left out. Where a name states a change or a piece, a line headed by the entry shows the natural chain unless it says otherwise.
# UniProt P18054: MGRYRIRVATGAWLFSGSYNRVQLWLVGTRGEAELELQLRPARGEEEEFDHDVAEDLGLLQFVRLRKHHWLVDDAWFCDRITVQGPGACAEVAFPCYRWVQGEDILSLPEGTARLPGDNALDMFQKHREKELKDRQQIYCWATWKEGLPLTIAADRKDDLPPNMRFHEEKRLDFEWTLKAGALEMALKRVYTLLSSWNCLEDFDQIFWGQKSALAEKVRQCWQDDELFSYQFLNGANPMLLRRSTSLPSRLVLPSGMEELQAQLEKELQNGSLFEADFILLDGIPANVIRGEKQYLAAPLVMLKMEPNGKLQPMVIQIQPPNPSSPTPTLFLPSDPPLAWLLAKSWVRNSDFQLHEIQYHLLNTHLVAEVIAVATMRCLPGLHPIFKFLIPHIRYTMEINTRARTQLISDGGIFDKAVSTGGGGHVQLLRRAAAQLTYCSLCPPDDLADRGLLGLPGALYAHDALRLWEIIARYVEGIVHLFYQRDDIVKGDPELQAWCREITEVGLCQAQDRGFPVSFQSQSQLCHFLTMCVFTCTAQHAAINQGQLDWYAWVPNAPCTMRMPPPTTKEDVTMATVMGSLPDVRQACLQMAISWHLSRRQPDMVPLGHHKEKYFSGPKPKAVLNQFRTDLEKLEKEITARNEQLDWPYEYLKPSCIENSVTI
# Where “and” joins values, the source holds several entries; their conditions need not be identical. Identical values can stand only once. Out of some 580,000 compounds screened, about 6,100 (1.1%) were called active. Inconclusive means that the source gave no clear call. Such entries were picked first, then a sample of the others. Calls follow the shape of the dose curve; as a rule, active = well fitted inhibition curve with a large enough effect; inconclusive = small, poorly fitted or top-dose-only effect, or another doubt; inactive = no such curve, though single readings can be large or run the other way. Potencies of inconclusive entries are doubtful fits and often do not repeat.
# Molecular target: Polyunsaturated fatty acid lipoxygenase ALOX12 (Homo sapiens) (UniProt P18054)
# Experiment: Primary qHTS assay for inhibitors of human arachidonate 12S-lipoxygenase (ALOX12): Round 2
# Settings: purified 12hLO, xylenol orange hydroperoxide absorbance; activity change, negative = inhibition: at 108 µM (top of the series) unless noted
# Procedure, shortened: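 Hydroperoxide product was detected by ferrous iron/xylenol orange as the 573 to 405 nm absorbance ratio. Arachidonic acid at 40 uM (final) was turned over for 30 min at room temperature by 150 nM human 12hLO, pH 7.0 Hepes buffer, after 15 min compound preincubation.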
# % is scaled to controls: 0 for no effect and ±100 for the full control effect; potency is read from the fitted curve at half-maximal effect.
Structure (SMILES),Potency,"activity change, negative = inhibition"
CN(C)CCNC(=O)C(=O)Nc1cccc2ncccc12,"inconclusive: 39.8 µM [inhibitor, partial curve, poor fit]",
COc1ccccc1Oc1ccc(N/C=C2/CCCC2=O)cc1,"inconclusive: 10 µM [inhibitor, full curve, poor fit]",
Cc1oc2c(O)c(O)ccc2c(=O)c1-c1ccc(Cl)cc1,active: 5.62 µM,
Cc1ccc(S(=O)(=O)N2CCN(C(=O)c3ccccc3)CC2)cc1,"inconclusive: 79.4 µM [inhibitor, partial curve, poor fit]",
Cc1cc(C(=O)OC(C)C(=O)Nc2ccc(Cl)cc2F)c(C)o1 (stereo not drawn),"inconclusive: 0.355 µM [inhibitor, full curve, poor fit]",
Cc1c(Cl)cccc1NC(=S)NNC=O,"inconclusive: 50.1 µM [inhibitor, partial curve, poor fit]",
COc1ccc(C(O)(C2CCCCC2)C(CN2CCCCC2)c2ccccc2)cc1 (stereo not drawn),"inconclusive: 5.62 µM [inhibitor, full curve, poor fit]",
CCOC(=O)[C@H]1[C@H]2COc3ccc(OC)cc3[C@@H]2N2C(=O)c3cc(OC)ccc3NC(=O)[C@@]12C,,inactive: -24.1%
Cc1ccc(CNC(=O)c2sc3nc(-c4ccccc4)cn3c2C)cc1,"inconclusive: 126 µM [inhibitor, partial curve, poor fit]",
Nc1c(C(=O)OCC2CCCO2)c2nc3ccccc3nc2n1C1CCCCC1 (stereo not drawn),,inactive: 9.56%
CCC(C(=O)NCc1ccco1)n1nc(C)c2c(C)n(-c3ccc(C)cc3)nc2c1=O (stereo not drawn),,inconclusive: -39.3% [inhibitor]
CCOC(=O)[C@]12CCC=C1N(CCC1=CCCCC1)C(=O)[C@H](CC(=O)N1CCSCC1)C2,"inconclusive: 39.8 µM [inhibitor, partial curve]",
CC(C)(C)c1ccccc1NC(=S)NC1CCCCC1,active: 39.8 µM,
S=C(NCCCN1CCOCC1)N1CCN(c2ccccc2)CC1,"inconclusive: 112 µM [inhibitor, single point]",
O=C(CCc1ncc(-c2ccc(F)cc2F)o1)N1CCN(S(=O)(=O)c2cc(F)ccc2F)CC1,,inactive: -32.5%
CCOc1ccccc1-n1c(SCC(N)=O)nnc1-c1ccco1,"inconclusive: 2.82 µM [inhibitor, full curve, poor fit]",
O=C(CSc1nnc(SCc2ccccc2)s1)NNC(=S)Nc1ccccc1,"inconclusive: 50.1 µM [inhibitor, partial curve, poor fit]",
NC(=O)C1(NC(=O)c2ccc(S(=O)(=O)N3CCCC(O)C3)cc2)CCCC1 (stereo not drawn),,inactive: 7.12%
CC1CCCCN1S(=O)(=O)c1ccc(C(=O)Nc2nnc(-c3ccncc3)o2)cc1 (stereo not drawn),,inactive: -3.23%
S=C(Nc1ccc(Oc2ccccc2)cc1)NC1CCCC1,"inconclusive: 39.8 µM [inhibitor, partial curve, poor fit]",
COC(=O)CN1C(=S)N(Cc2ccccc2)C(=O)C1CC(=O)Nc1ccc(Br)cc1 (stereo not drawn),"inconclusive: 89.1 µM [inhibitor, single point]",

Structure (SMILES),Potency,"activity change, negative = inhibition"
O=C1N(Cc2ccccc2)c2ccc(Cl)cc2C1(O)c1c[nH]c2ccccc12 (stereo not drawn),"inconclusive: 141 µM [inhibitor, partial curve, poor fit]",
O=C(CCc1ncc(-c2c(F)cccc2F)o1)NCc1ccccc1,"inconclusive: 31.6 µM [inhibitor, partial curve, poor fit]",
CC(C)c1ccc(-c2nnn(C(C)C(=O)Nc3cccc(C#N)c3)n2)cc1 (stereo not drawn),"inconclusive: 35.5 µM [inhibitor, partial curve, poor fit]",
COC(=O)c1ccc(N2C(c3cccc(OC)c3)=Cc3ccc(F)cc3C2c2c(C)[nH]c3ccccc23)cc1 (stereo not drawn),"inconclusive: 0.316 µM [inhibitor, full curve, poor fit]",
O=C(NC(NC(=S)Nc1ccc(F)c([N+](=O)[O-])c1)C(Cl)(Cl)Cl)C(c1ccccc1)c1ccccc1 (stereo not drawn),"inconclusive: 25.1 µM [inhibitor, partial curve, poor fit]",
O=C(OCc1ccccc1)N1CCCC2(C1)C(=NC1CCCCC1)NC(=O)N2c1cccnc1 (stereo not drawn),,inactive: 75.9%
CCCn1c(SCC(=O)N2CCc3ccccc32)nnc1-c1ccco1,"inconclusive: 1.58 µM [inhibitor, full curve, poor fit]",
CCCN1CCCCC12Cc1ccccc1CN(C(=O)C1CCN(C)CC1)C2 (stereo not drawn),"inconclusive: 12.6 µM [inhibitor, full curve]",
Cc1c(C#N)c(NC(=O)CSc2nnnn2-c2ccccc2)n(CC2CCCO2)c1C (stereo not drawn),"inconclusive: 39.8 µM [inhibitor, partial curve, poor fit]",
O=C(c1ncn(Cc2ccccc2)c1C(=O)N1CCc2ccccc2C1)N1CCc2ccccc2C1,"inconclusive: 17.8 µM [inhibitor, full curve]",
COc1ccc(C(=O)NC(C)c2nnc(SCc3ccc(Cl)c(Cl)c3)n2C)cc1 (stereo not drawn),active: 3.98 µM,
Cc1ccnn1CCC(=O)N[C@@H]1COCC[C@H]1Oc1ccc(C(N)=O)cc1,,inactive: 49.5%
COCCn1c(SCC(=O)c2cc(C)n(CC(F)(F)F)c2C)nnc1-c1ccc(Cl)cc1,"inconclusive: 112 µM [inhibitor, single point]",
O=C(NCCc1ccccc1)c1nnn2c1COC(c1ccc(Br)cc1)C2 (stereo not drawn),"inconclusive: 8.91 µM [inhibitor, full curve]",
NC(=O)C(Sc1ccc(C(F)(F)F)cn1)c1ccccc1 (stereo not drawn),"inconclusive: 79.4 µM [inhibitor, partial curve, poor fit]",
Cc1noc(-c2ccc(OCc3ccccc3F)cc2O)c1-c1ccc(Br)cc1,"inconclusive: 0.562 µM [inhibitor, full curve, poor fit]",
COc1ccccc1Oc1c(C)oc2cc(OCC(=O)O)ccc2c1=O,"inconclusive: 1.78 µM [inhibitor, partial curve, poor fit]",
COCCNC(=S)Nc1ccc(N2CCOCC2)c(S(=O)(=O)Nc2ccccc2OC)c1,"inconclusive: 89.1 µM [inhibitor, partial curve, poor fit]",
COc1ccc(C)cc1NC(=O)NC1CC(=O)N(c2ccc3c(c2)OCCO3)C1 (stereo not drawn),,inactive: 1.65%
CC(C)(C)C(=O)NC(=S)N1CCc2ccccc21,"inconclusive: 89.1 µM [inhibitor, partial curve, poor fit]",
CC(=O)Nc1ccc(-c2csc(Nc3cccc4ccccc34)n2)cc1,"inconclusive: 35.5 µM [inhibitor, partial curve]",

Structure (SMILES),Potency,"activity change, negative = inhibition"
COC(=O)c1ccccc1NC=C1C(=O)OC2(CCCCC2)OC1=O,"inconclusive: 44.7 µM [inhibitor, partial curve, poor fit]",
CC(C)=CCc1c(O)cc2oc3c(CC=C(C)C)c(O)c(O)c(CC=C(C)C)c3c(=O)c2c1O,"inconclusive: 3.55 µM [inhibitor, full curve, poor fit]",
COc1ccc(-c2cc(C(=O)NCC(C)C)c3c(C4CCNC4)noc3n2)cc1 (stereo not drawn),,inactive: -3.36% [at 6.33 µM]
Cn1ncc(N2CCC(C(=O)Nc3ccccc3CCc3ccccn3)C2)cc1=O (stereo not drawn),"inconclusive: 31.6 µM [inhibitor, partial curve]",
COc1ccc(NC(C)=O)cc1NC(=O)c1cc(-c2ccco2)nc2ccccc12,"inconclusive: 35.5 µM [inhibitor, partial curve, poor fit]",
O=C(NCCn1ccc2ccccc21)c1cccc([N+](=O)[O-])c1,"inconclusive: 44.7 µM [inhibitor, partial curve, poor fit] and inconclusive: 79.4 µM [inhibitor, single point]",
O=C(CNc1ccc(C(F)(F)F)cc1)Nc1cccc(S(=O)(=O)N2CCCC2)c1,"inconclusive: 79.4 µM [inhibitor, single point]",
COc1ccc(Cl)cc1N1CC(c2nc3ccccc3[nH]2)CC1=O (stereo not drawn),"inconclusive: 100 µM [inhibitor, single point]",
CCN(CC)C(=O)CN1C(=O)NC2(CCC(C)CC2)C1=O (stereo not drawn),,inactive: 36.2%
CSC(C)C(=O)Nc1ccc(Cl)c(Cl)c1 (stereo not drawn),"inconclusive: 4.47 µM [inhibitor, partial curve, poor fit]",
Cc1cccc(NC(=S)Nc2ccccn2)c1C,"inconclusive: 12.6 µM [inhibitor, full curve]",
Cc1ccc(F)cc1NC(=O)c1cnc2ccccc2n1,,inactive: -12.5%
CNC(=S)N/N=C/c1c(C)cccc1Cl,"inconclusive: 28.2 µM [inhibitor, partial curve, poor fit]",
Cc1ccccc1NC(=S)N(CCN(C)C)C(C)c1cccnc1 (stereo not drawn),,inactive: 0.642%
Fc1ccc(Cn2nnnc2CN2CCN(C3CCCC3)CC2)cc1,"inconclusive: 35.5 µM [inhibitor, full curve, poor fit]",
COc1ccc(/C=C(\C#N)c2nc3ccccc3[nH]2)cc1OC,"inconclusive: 5.62 µM [inhibitor, full curve]",
Cc1oc(-c2ccccc2)nc1C(=O)Nc1ccc(F)cc1,"inconclusive: 35.5 µM [inhibitor, full curve, poor fit]",
C=CC[C@@H](CC(=O)N(CCO)Cc1ccccc1)C(=O)NC[C@@H](OC(=O)[C@@H](CC=C)Cc1ccc(F)cc1)c1ccccc1,,inactive: -2.03%
CN(CC(=O)Nc1ccccc1Br)C(=O)c1ccccc1Cc1ccccc1,"inconclusive: 141 µM [inhibitor, single point]",
O=C(O)c1ccc(-c2ccccc2F)o1,,inconclusive: -30.4% [inhibitor]
O=c1[nH]c(Nc2ccccc2)nc2nccc(-c3cccs3)c12,,inactive: 56.5%
